# Some of the results follow.
# B1: MFG-E8 (Mus musculus), P21956 (protein)
# chain: MQVSRVLAALCGMLLCASGLFAASGDFCDSSLCLNGGTCLTGQDNDIYCLCPEGFTGLVCNETERGPCSPNPCYNDAKCLVTLDTQRGDIFTEYICQCPVGYSGIHCETETNYYNLDGEYMFTTAVPNTAVPTPAPTPDLSNNLASRCSTQLGMEGGAIADSQISASSVYMGFMGLQRWGPELARLYRTGIVNAWTASNYDSKPWIQVNLLRKMRVSGVMTQGASRAGRAEYLKTFKVAYSLDGRKFEFIQDESGGDKEFLGNLDNNSLKVNMFNPTLEAQYIKLYPVSCHRGCTLRFELLGCELHGCSEPLGLKNNTIPDSQMSASSSYKTWNLRAFGWYPHLGRLDNQGKINAWTAQSNSAKEWLQVDLGTQRQVTGIITQGARDFGHIQYVASYKVAHSDDGVQWTVYEEQGSSKVFQGNLDNNSHKKNIFEKPFMARYVRVLPVSWHNRITLRLELLGC
# Legend:
# Assay in all cases: glycan array binding signal (z-score within array); higher = stronger binding
# Conditions in all cases: glycan notation: IUPAC condensed, linker removed
# Gal(a1-3)Gal(b1-3)GlcNAc = target: Gal(a1-3)Gal(b1-3)GlcNAc
# How it was run: (§1)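 The Consortium for Functional Glycomics database supplied 3228 glycan arrays, of which those lacking an available protein sequence were dropped. The binding signal, a within-array Z-score, was averaged across arrays of the same protein sequence and across linkers. Negative scores can be read as non-binding.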
# [1] = target: Gal(a1-3)Gal(b1-3)GlcNAc(b1-2)Man
# How it was run: as §1
# [2] = target: Gal(a1-3)Gal(b1-3)GlcNAc(b1-2)Man(a1-3)[Gal(a1-3)Gal(b1-3)GlcNAc(b1-2)Man(a1-6)]Man(b1-4)GlcNAc(b1-4)GlcNAc
# How it was run: as §1
# [3] = target: Gal(a1-3)Gal(b1-3)GlcNAc(b1-3)GalNAc
# How it was run: as §1
# [4] = target: Gal(a1-3)Gal(b1-3)GlcNAc(b1-6)GalNAc
# How it was run: as §1
# [5] = target: Gal(a1-3)Gal(b1-3)[Fuc(a1-4)]GlcNAc(b1-2)Man(a1-3)[Gal(a1-3)Gal(b1-3)[Fuc(a1-4)]GlcNAc(b1-2)Man(a1-6)]Man(b1-4)GlcNAc(b1-4)GlcNAc
# How it was run: as §1
# Gal(a1-3)Gal(b1-4)Glc = target: Gal(a1-3)Gal(b1-4)Glc
# How it was run: as §1
# Gal(a1-3)Gal(b1-4)GlcNAc = target: Gal(a1-3)Gal(b1-4)GlcNAc
# How it was run: as §1
# [6] = target: Gal(a1-3)Gal(b1-4)GlcNAc(b1-2)Man
# How it was run: as §1
# [7] = target: Gal(a1-3)Gal(b1-4)GlcNAc(b1-2)Man(a1-3)[Gal(a1-3)Gal(b1-4)GlcNAc(b1-2)Man(a1-6)]Man(b1-4)GlcNAc(b1-4)GlcNAc
# How it was run: as §1
# [8] = target: Gal(a1-3)Gal(b1-4)GlcNAc(b1-3)GalNAc
# How it was run: as §1
# [9] = target: Gal(a1-3)Gal(b1-4)GlcNAc(b1-6)GalNAc
# How it was run: as §1
# [10] = target: Gal(a1-3)Gal(b1-4)[Fuc(a1-3)]GlcNAc
# How it was run: as §1
# [11] = target: Gal(a1-3)Gal(b1-4)[Fuc(a1-3)]GlcNAc(b1-2)Man(a1-3)[Gal(a1-3)Gal(b1-4)[Fuc(a1-3)]GlcNAc(b1-2)Man(a1-6)]Man(b1-4)GlcNAc(b1-4)GlcNAc
# How it was run: as §1
# Gal(a1-3)GalNAc = target: Gal(a1-3)GalNAc
# How it was run: as §1
# [12] = target: Gal(a1-3)[Gal(a1-4)]Gal(b1-4)GlcNAc
# How it was run: as §1
# [13] = target: Gal(a1-4)Gal(b1-3)GlcNAc(b1-2)Man(a1-3)[Gal(a1-4)Gal(b1-3)GlcNAc(b1-2)Man(a1-6)]Man(b1-4)GlcNAc(b1-4)GlcNAc
# How it was run: as §1
# Gal(a1-4)Gal(b1-4)Glc = target: Gal(a1-4)Gal(b1-4)Glc
# How it was run: as §1
# Gal(a1-4)Gal(b1-4)GlcNAc = target: Gal(a1-4)Gal(b1-4)GlcNAc
# How it was run: as §1
# [14] = target: Gal(a1-4)Gal(b1-4)GlcNAc(b1-2)Man(a1-3)[Gal(a1-4)Gal(b1-4)GlcNAc(b1-2)Man(a1-6)]Man(b1-4)GlcNAc(b1-4)GlcNAc
# How it was run: as §1
# [15] = target: Gal(a1-4)Gal(b1-4)GlcNAc(b1-3)Gal(b1-4)Glc
# How it was run: as §1
# Gal(a1-4)GlcNAc = target: Gal(a1-4)GlcNAc
# How it was run: as §1
# Gal(a1-6)Glc = target: Gal(a1-6)Glc
# How it was run: as §1
# Gal(b1-2)Gal = target: Gal(b1-2)Gal
# How it was run: as §1
# Gal(b1-3)Gal = target: Gal(b1-3)Gal
# How it was run: as §1
# Gal(b1-3)Gal(b1-4)GlcNAc = target: Gal(b1-3)Gal(b1-4)GlcNAc
# How it was run: as §1
# [16] = target: Gal(b1-3)Gal(b1-4)GlcNAc(b1-2)Man(a1-3)[Gal(b1-3)Gal(b1-4)GlcNAc(b1-2)Man(a1-6)]Man(b1-4)GlcNAc(b1-4)GlcNAc
# How it was run: as §1
# Gal(b1-3)GalNAc = target: Gal(b1-3)GalNAc
# How it was run: as §1
# [17] = target: Gal(b1-3)GalNAc(a1-3)[Fuc(a1-2)]Gal(b1-4)Glc
# How it was run: as §1
# [18] = target: Gal(b1-3)GalNAc(a1-3)[Fuc(a1-2)]Gal(b1-4)GlcNAc
# How it was run: as §1
# Gal(b1-3)GalNAc(b1-3)Gal = target: Gal(b1-3)GalNAc(b1-3)Gal
# How it was run: as §1
# [19] = target: Gal(b1-3)GalNAc(b1-3)Gal(a1-4)Gal(b1-4)Glc
# How it was run: as §1
# [20] = target: Gal(b1-3)GalNAc(b1-4)Gal(b1-4)Glc
# How it was run: as §1
# [21] = target: Gal(b1-3)GalNAc(b1-4)[Neu5Ac(a2-3)]Gal(b1-4)Glc
# How it was run: as §1
# Gal(b1-3)GlcNAc = target: Gal(b1-3)GlcNAc
# How it was run: as §1
# [22] = target: Gal(b1-3)GlcNAc(a1-3)Gal(b1-4)GlcNAc
# How it was run: as §1
# [23] = target: Gal(b1-3)GlcNAc(a1-6)Gal(b1-4)GlcNAc
# How it was run: as §1
binder,measurement,setting,value
B1,glycan array binding signal (z-score),Gal(a1-3)Gal(b1-3)GlcNAc,-0.404
same,glycan array binding signal (z-score),[1],-0.334
same,glycan array binding signal (z-score),[2],0.914
same,glycan array binding signal (z-score),[3],0.272
same,glycan array binding signal (z-score),[4],-0.054
same,glycan array binding signal (z-score),[5],0.336
same,glycan array binding signal (z-score),Gal(a1-3)Gal(b1-4)Glc,-0.244
same,glycan array binding signal (z-score),Gal(a1-3)Gal(b1-4)GlcNAc,-0.544
same,glycan array binding signal (z-score),[6],-0.241
same,glycan array binding signal (z-score),[7],-0.052
same,glycan array binding signal (z-score),[8],0.348
same,glycan array binding signal (z-score),[9],0.616
same,glycan array binding signal (z-score),[10],-0.553
same,glycan array binding signal (z-score),[11],0.518
same,glycan array binding signal (z-score),Gal(a1-3)GalNAc,-0.548
same,glycan array binding signal (z-score),[12],0.011
same,glycan array binding signal (z-score),[13],-0.165
same,glycan array binding signal (z-score),Gal(a1-4)Gal(b1-4)Glc,0.037
same,glycan array binding signal (z-score),Gal(a1-4)Gal(b1-4)GlcNAc,-0.571
same,glycan array binding signal (z-score),[14],0.217
same,glycan array binding signal (z-score),[15],-0.463
same,glycan array binding signal (z-score),Gal(a1-4)GlcNAc,-0.686
same,glycan array binding signal (z-score),Gal(a1-6)Glc,1.6
same,glycan array binding signal (z-score),Gal(b1-2)Gal,-0.037
same,glycan array binding signal (z-score),Gal(b1-3)Gal,-0.354
same,glycan array binding signal (z-score),Gal(b1-3)Gal(b1-4)GlcNAc,-0.148
same,glycan array binding signal (z-score),[16],-0.381
same,glycan array binding signal (z-score),Gal(b1-3)GalNAc,-0.347
same,glycan array binding signal (z-score),[17],0.686
same,glycan array binding signal (z-score),[18],-0.266
same,glycan array binding signal (z-score),Gal(b1-3)GalNAc(b1-3)Gal,0.416
same,glycan array binding signal (z-score),[19],-0.443
same,glycan array binding signal (z-score),[20],-0.553
same,glycan array binding signal (z-score),[21],-0.423
same,glycan array binding signal (z-score),Gal(b1-3)GlcNAc,-0.518
same,glycan array binding signal (z-score),[22],-0.599
same,glycan array binding signal (z-score),[23],-0.106

# Random excerpt: two records from the list.
binder,measurement,setting,value
B1,glycan array binding signal (z-score),Gal(a1-6)Glc,1.6
same,glycan array binding signal (z-score),[19],-0.443

# Reference: the supplement of paper PMC8728848
